This note sets out measurements from patent US9889094B2, “Particle size reduction of an antimuscarinic compound” (CHIESI FARMACEUTICI S.p.A., priority 2013, dated 2018).

The conditions of the data set: perfluoroheptane as anti-solvent (Example 5).

For the molecule `C[N+]1(C)CCC(OC(=O)C(O)(c2ccccc2)C2CCCC2)C1` (racemic) [rac-glycopyrronium bromide, (3S,2′R), (3R,2′S)-3-[(cyclopentylhydroxyphenylacetyl)oxy]-1,1-dimethylpyrrolidinium bromide], the “physical stability of produced particles” value is recorded as “physical stable”.
